{
  "source": "the supplement of paper PMC9549374",
  "note": "Some of the results follow. Cut-off read from the data, not from the text of the source: active = 2-fold of DMSO or more and inactive = the rest. Single values of this set are uncertain. Some low values are a fixed figure set by the source, not a measured ratio.",
  "data": [
    {"test_system": "CM7/1-hgem mouse ES cell-derived cardiomyocytes", "test": "maximal number of mAG-hGem(1/110)-positive cardiomyocytes over 96 h, fold-change vs DMSO; higher = more cardiomyocyte cell cycle activity", "details": "1 µM; 96 (max over 12 h time points) h", "values": [
      {"compound": "CC[N+](C)(C)c1cccc(O)c1", "maximal number": "inactive: 1"},
      {"compound": "CCCC1O[C@@H]2C[C@H]3[C@@H]4CCC5=CC(=O)C=C[C@]5(C)[C@H]4[C@@H](O)C[C@]3(C)[C@]2(C(=O)CO)O1", "note": "(some centres undefined)", "maximal number": "inactive: 1"},
      {"compound": "C[C@@H](O)[C@H]1C(=O)N2C(C(=O)O)=C(S[C@@H]3CN[C@H](C(=O)N(C)C)C3)[C@H](C)[C@H]12", "maximal number": "inactive: 1"},
      {"compound": "CCCCCc1c2c(cc(O)c1C(=O)O)OC(=O)c1c(cc(OC)cc1C(=O)CCCC)O2", "maximal number": "active: 2"},
      {"compound": "CCCCc1oc2ccccc2c1C(=O)c1cc(I)c(OCCN(CC)CC)c(I)c1", "maximal number": "inactive: 1"},
      {"compound": "Cc1ccc(C(C)C)cc2c(C)ccc1-2", "maximal number": "inactive: 1"},
      {"compound": "C[C@H](CCC(=O)O)[C@H]1CC[C@H]2[C@@H]3CC[C@@H]4C[C@H](O)CC[C@]4(C)[C@H]3CC[C@]12C", "maximal number": "inactive: 1"},
      {"compound": "CC(C)CCC[C@@H](C)[C@H]1CC[C@H]2[C@@H]3CC[C@@H]4C[C@H](O)CC[C@]4(C)[C@H]3CC[C@]12C", "maximal number": "inactive: 1"},
      {"compound": "Nc1nc(NC2CC2)c2ncn([C@H]3C=C[C@@H](CO)C3)c2n1", "maximal number": "inactive: 1"},
      {"compound": "CCN(CC)CCOCCOC(=O)C1(c2ccccc2)CCCC1", "maximal number": "inactive: 1"},
      {"compound": "CN1CCN2c3ccccc3Cc3ccccc3C2C1", "note": "(centres undefined)", "maximal number": "inactive: 1"},
      {"compound": "COc1cc(O)cc(OC)c1OC", "maximal number": "inactive: 1"},
      {"compound": "COc1cc(/C=C/C(=O)O)cc(OC)c1OC", "maximal number": "inactive: 1"},
      {"compound": "COC(=O)[C@@]1(C)CCC[C@]2(C)c3ccc(O)c(C(C)C)c3CCC12", "note": "(some centres undefined)", "maximal number": "inactive: 1"},
      {"compound": "NC(Cn1ccc(=O)c(O)c1)C(=O)O", "note": "(centres undefined)", "maximal number": "inactive: 1"},
      {"compound": "CC(C)c1c(O)ccc2c1CC[C@H]1C(C)(C)CCC[C@]21C", "maximal number": "inactive: 1"},
      {"compound": "COc1cc(/C=C/C(=O)N2CCCCCCC2)cc(OC)c1OC", "maximal number": "inactive: 1"},
      {"compound": "COC(=O)C[C@H]1C2(C)CC34OC5(C)O[C@@]6([C@H](OC(C)=O)C(OC(C)=O)[C@]7(C)C(/C(=C(/O)C(C)C)C(=O)O[C@H]7c7ccoc7)[C@@]6(O5)[C@H](OC(C)=O)[C@@]3(O)C2OC(=O)C(C)C)[C@]14C", "note": "(some centres undefined)", "maximal number": "inactive: 1"},
      {"compound": "CC(C)CCCC(C)C1CCC2C3=CCC4CC(O)CCC4(C)C3CCC21C", "note": "(centres undefined)", "maximal number": "inactive: 0"},
      {"compound": "COc1cc(O)c2c(c1)C(=O)c1cc(C)cc(O)c1C2=O", "maximal number": "inactive: 0"},
      {"compound": "N#Cc1ccc(C(c2ccc(C#N)cc2)n2cncn2)cc1", "maximal number": "inactive: 1"},
      {"compound": "Oc1ccc2c(c1)OC[C@]1(O)Cc3cc(O)c(O)cc3[C@H]21", "maximal number": "inactive: 1"},
      {"compound": "Cc1nc(Nc2ncc(C(=O)Nc3c(C)cccc3Cl)s2)cc(N2CCN(CCO)CC2)n1", "maximal number": "inactive: 1"},
      {"compound": "CCOC(=O)CC(=O)N1CCSC1COc1ccccc1OC", "note": "(centres undefined)", "maximal number": "inactive: 1"}
    ]}
  ]
}
